Measurements published in the supplement of paper PMC3334620.
Whole data set: some 33,000 sequences, median “E-score (-0.5 to 0.5)” near -0.016, cut for the highest 2% near 0.3. This is one part of the list.

Biological target: T1, Yer184c (UniProt P39961)
T1 sequence: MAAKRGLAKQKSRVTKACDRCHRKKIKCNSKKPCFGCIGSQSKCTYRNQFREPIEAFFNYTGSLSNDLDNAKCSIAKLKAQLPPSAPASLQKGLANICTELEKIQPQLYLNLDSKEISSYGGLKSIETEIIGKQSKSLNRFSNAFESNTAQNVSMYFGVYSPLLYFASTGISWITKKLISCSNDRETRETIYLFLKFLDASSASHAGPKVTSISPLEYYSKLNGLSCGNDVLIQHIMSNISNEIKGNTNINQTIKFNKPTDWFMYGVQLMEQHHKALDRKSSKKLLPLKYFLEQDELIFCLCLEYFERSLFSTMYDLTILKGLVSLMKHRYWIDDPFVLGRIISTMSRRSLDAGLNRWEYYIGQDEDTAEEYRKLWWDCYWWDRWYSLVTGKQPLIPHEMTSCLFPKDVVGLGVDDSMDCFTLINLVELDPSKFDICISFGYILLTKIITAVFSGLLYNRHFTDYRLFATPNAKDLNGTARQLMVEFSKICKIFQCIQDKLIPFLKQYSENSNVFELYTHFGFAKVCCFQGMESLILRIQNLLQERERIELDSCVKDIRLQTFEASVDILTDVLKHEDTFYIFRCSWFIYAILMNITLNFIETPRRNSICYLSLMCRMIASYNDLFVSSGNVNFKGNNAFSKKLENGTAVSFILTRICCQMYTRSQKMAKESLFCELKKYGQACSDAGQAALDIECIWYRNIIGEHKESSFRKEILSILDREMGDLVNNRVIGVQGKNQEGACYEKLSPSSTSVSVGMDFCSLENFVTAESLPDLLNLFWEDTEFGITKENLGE
Experiment: PBM E-score (8-mer binding enrichment) (E-score (-0.5 to 0.5)); higher = stronger / more preferred TF binding
Settings: protein concentration: 100 nM; construct: GST-full length
In short: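 E-scores (a modified Wilcoxon-Mann-Whitney statistic) were assigned by the Universal PBM Analysis Suite to every ungapped eight-base word pooled with its reverse complement. The input came from universal all-10-mer Agilent arrays made double-stranded by primer extension and probed with GST-tagged yeast transcription factors at about 100-200 nM. Fluorescent anti-GST detected bound protein, and masliner normalised the scans.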

Sequence	PBM E-score
AACATTCC	-0.0121
AACCTTTG	-0.00777
GGTTAACC	0.0536
AAGCGTCA	-0.0183
GGCCGCCC	-0.119
ATGAAACC	0.133
CGAGGTTC	0.116
AGGTTACC	0.159
CGGAGTTC	0.265
AATTGTGA	0.109
AGTCCCAA	-0.11
CCATAACA	0.128
AGTCTTAA	-0.107
ATTTCTAA	0.0963
CCCAGAAC	-0.126
AGCGCGAC	-0.18
ATTGGGTC	-0.0134
GTTGAGTA	0.0258
CTAGCTAA	-0.0599
ACCGCTCG	-0.135
AATCCTAC	-0.0783
CATCAAGC	-0.016
AGTCCAGC	-0.114
ATTCGGCA	0.318
GGGATTTA	0.0651

Sequence	PBM E-score
ATGAGCTA	0.0119
AAGCTGTG	-0.0976
GTTAAATA	0.123
ACCATCAT	-0.139
CAGCACGA	-0.119
GAACGGCA	0.193
GCCGCTAC	-0.0152
AGTATGTG	-0.00422
CACGTAAC	-0.226
TGTGAGAA	0.0227
TCCACCCA	-0.325
GAGAGTCA	-0.175
ACGGGATC	0.0948
TAAGTCTA	-0.259
ATCAGCTC	-0.0229
ATGTAGTA	0.15
GCACTGAA	-0.0305
CTTTAGGA	-0.0775
TGTTGAAA	0.235
CGGCCCCC	-0.189
CTAACCCA	-0.0813
CACGCGAA	-0.0594
CACAAGTG	-0.21
AATCTGCA	-0.102
ATTTATGA	0.231

Sequence	PBM E-score
ATCCTTTA	0.025
ATGATCGG	0.183
ACGGTTAA	0.0948
GTGTATGA	-0.0898
AGAGGTAT	0.136
GAACAAAA	0.276
TCTTTGAA	0.151
CACTATCA	-0.158
ACCCAGGA	-0.108
ATTTCTAG	0.222
CCCACATA	-0.264
AACCAAAA	0.0925
CAGTTCAA	-0.104
CGCTCCGC	0.142
CCAGCACA	-0.0868
TAGGCTAA	-0.101
GTAGTGAA	0.0671
GAGCGCAA	-0.176
TCGTATCA	-0.00746
GCGGGTTA	0.00078
CGAGTCAC	-0.0328
CCGCGAGA	-0.206
AAATTATC	0.295
CGTTTGAC	0.0214
GACGTAAC	0.00204

Sequence	PBM E-score
AGATTGAC	-0.152
GTGTAGGA	-0.118
ACAGGCGC	-0.188
AGCAGAAG	-0.117
GAAGGATA	-0.0217
ATATTTTG	0.218
ACTGTGTA	0.0718
AGTTACTC	0.135
ACGCTATA	-0.163
ATATATAA	0.339
AAATTGAC	0.125
CCTTTTAG	-0.187
CCCGTATA	0.0422
ATGTCTCA	-0.0797
TTCCCGAA	0.277
TCCTACGA	-0.233
AAGCTCTC	-0.0437
AGTGGGGA	-0.285
CCGAATAG	0.253
CATCAGTC	-0.142
ACCTAGGC	-0.219
ACGCAGTG	-0.188
ACCCCAAC	-0.131
ACGTGGAT	-0.229
ATGCGAGC	-0.0578

Sequence	PBM E-score
ACTCTGCT	-0.0803
CCACACTC	-0.0922
ACACTTTC	-0.021
GCACGTAC	-0.233
ATACAAAA	0.221
CTCTAAGC	0.0215
GCTGTGTA	-0.0706
ACAAAGAC	0.155
CATAGGGA	-0.19
CCCCCTCA	-0.44
ACAATATA	0.286
CTATGCAA	-0.157
CTCCAGTA	-0.0781
CGCTCCTC	-0.221
TAACCAGA	0.0462
ACTGCCAT	0.0176
ACGGTACC	0.118
ATGTACAA	0.126
ACATTATC	0.175
CTAGGCAG	-0.0512
AATTCCTA	0.00772
CCACAACA	-0.182
GAGTCACA	-0.0909
ACATGGAA	0.00985
ACACCGGT	0.126

Sequence	PBM E-score
CGACCAGC	-0.0372
CGTTCCGA	0.236
AGTCATAC	-0.163
ACCCTACG	-0.235
ACCGGGAT	0.256
GCACATCC	0.0126
GTCGCAAA	0.0655
ATCCTCTC	-0.0553
GGGAGGCA	-0.241
ACAAAGAT	0.196
AGGCTGTA	-0.0449
CGTACCCC	0.00233
CCATGTCC	-0.1
CTGGGTCC	-0.18
AATGTCGT	0.0182
GGCCGCAA	0.0291
CGAACGTA	-0.0861
ACGGACCC	0.0704
ACGTAAAT	0.0506
AGAGACAC	-0.119
GCGAACCC	-0.0496
AGAAAACT	0.0223
CGTTAGAA	0.082
ACTTCCTA	-0.0232
ACACTAAA	0.162

Sequence	PBM E-score
AGCGCGTC	-0.166
GCAGCACC	-0.129
AATGACTC	-0.206
CGGGTGCA	0.0336
GTAACTAA	0.128
CCCCTGCA	-0.285
GACATCAC	-0.0307
CAGTGGGC	-0.171
CAATGGCC	-0.242
ATACATTC	-0.152
CTAGGCAA	-0.0736
AATGACAG	-0.0175
GACTTGCC	-0.199
ACAAGAGA	0.0222
CTCTGTCC	-0.0481
CATCACGA	-0.0921
CATATTGA	-0.0921
AGCCCGGA	0.314
CATTGGAG	-0.0285
CAAACGCA	-0.156
CGGTGCTA	0.0883
CATCTAAC	-0.0721

In a second layout: entries from further up.
Sequence | PBM E-score
ATACATTC | -0.152
CTAGGCAA | -0.0736
AATGACAG | -0.0175
GACTTGCC | -0.199
ACAAGAGA | 0.0222
